Test results from patent US20260234255A1.
Results are given in words; binding and its absence hold for the method and conditions named. Some binding calls cover weakened binding; strength is not graded here.

B1: IgG1-CD30-T215-FEAR (antibody, V domains shown)
VH: QVTLKESGPGILQPSQTLSLTCSFSGFSLSVSGMGVSWIRQPSGKGLEWLAHIHWDDDRRSNPSLRSRLTISKDTSNNQVFLKITSVDTADTATYYCARRPDLYGNYFFFDFWGQGTTLTVSS
VL: DIVMTQSQKFMSTSVGDRVSVTCKASQNVFTNVAWYQQKLGQSPKPLIYSASYRYSGVPDRFTGSGSGTDFTLTISDVQSEDLAEYFCQQYNSYPVTFGAGTKLELKR
B2: IgG1-CD30-HRS-3-FEAR (antibody, V domains shown)
VH: QVQLQQSGAELARPGASVKMSCKASGYTFTTYTIHWVRQRPGHDLEWIGYINPSSGYSDYNQNFKGKTTLTADKSSNTAYMQLNSLTSEDSAVYYCARRADYGNYEYTWFAYWGQGTTVTVSS
VL: DIVMTQSPKFMSTSVGDRVTVTCKASQNVGTNVAWFQQKPGQSPKVLIYSASYRYSGVPDRFTGSGSGTDFTLTISNVQSEDLAEYFCQQYHTYPLTFGGGTKLEINR
B3: IgG1-CD30-HeFi-I-FEAR (antibody, V domains shown)
VH: EVKLVESGGGLVQPGGSLRLSCATSGFTFSDYYMNWVRQPPGKALEWLGFIRNKANGYTTEFSASVMGRFTISRDDSQSILYLQMNTLRAEDSATYYCARDPPYGNPHYYAMDYWGQGTSVTVSS
VL: DIVLTQSPASLAVSLGQRATISCRASKSVSASGYNYMHWYQQKAGQPPKLLIHLASNLESGVPARFSGSGSGTDFTLNIHPVEEEDASTYYCQHSGELPFTFGSGTKLEIKR

Target: rhesus monkey (Macaca mulatta) CD30 (rhesus monkey)
Experiment: flow cytometry, Expi293F cells transfected with mmCD30

binding | Binder
binds | B1
binds | B2
no binding (tested: 0.005 to 10 µg/mL) | B3

Target: rhesus monkey (Macaca mulatta) CD30 (rhesus monkey)
Experiment: flow cytometry, Expi293F cells transfected with rhesus monkey CD30

binding | Binder
binds | B1
binds | B2
no binding (tested: 10 µg/mL) | B3
